Measurements published in the supplement of paper PMC10849652.
Some of the results follow.

Protein sequences, listed by entry. Tags and fused reporters are not part of them. Lines headed by an entry give the natural chain unless they say otherwise; changes in a name come on top.
UniProt P29353: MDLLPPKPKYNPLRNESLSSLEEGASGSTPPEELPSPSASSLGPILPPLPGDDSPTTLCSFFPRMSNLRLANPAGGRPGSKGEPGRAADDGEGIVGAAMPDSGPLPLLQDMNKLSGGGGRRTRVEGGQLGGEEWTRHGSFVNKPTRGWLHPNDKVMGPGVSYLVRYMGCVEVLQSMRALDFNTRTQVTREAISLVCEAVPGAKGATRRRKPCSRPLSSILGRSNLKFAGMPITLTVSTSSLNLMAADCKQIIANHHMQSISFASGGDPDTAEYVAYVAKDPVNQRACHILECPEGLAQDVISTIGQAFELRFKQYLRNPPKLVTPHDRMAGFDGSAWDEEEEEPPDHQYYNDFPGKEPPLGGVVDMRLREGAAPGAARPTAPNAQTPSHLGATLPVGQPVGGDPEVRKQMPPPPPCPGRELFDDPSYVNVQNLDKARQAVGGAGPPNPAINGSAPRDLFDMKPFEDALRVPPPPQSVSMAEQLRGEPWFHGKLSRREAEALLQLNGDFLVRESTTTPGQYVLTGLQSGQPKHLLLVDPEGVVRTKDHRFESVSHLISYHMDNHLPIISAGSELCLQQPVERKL
UniProt P60468, whole entry, looked up: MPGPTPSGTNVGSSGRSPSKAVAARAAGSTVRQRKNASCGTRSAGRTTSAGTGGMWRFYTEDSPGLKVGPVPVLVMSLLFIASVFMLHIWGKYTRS
UniProt Q12874: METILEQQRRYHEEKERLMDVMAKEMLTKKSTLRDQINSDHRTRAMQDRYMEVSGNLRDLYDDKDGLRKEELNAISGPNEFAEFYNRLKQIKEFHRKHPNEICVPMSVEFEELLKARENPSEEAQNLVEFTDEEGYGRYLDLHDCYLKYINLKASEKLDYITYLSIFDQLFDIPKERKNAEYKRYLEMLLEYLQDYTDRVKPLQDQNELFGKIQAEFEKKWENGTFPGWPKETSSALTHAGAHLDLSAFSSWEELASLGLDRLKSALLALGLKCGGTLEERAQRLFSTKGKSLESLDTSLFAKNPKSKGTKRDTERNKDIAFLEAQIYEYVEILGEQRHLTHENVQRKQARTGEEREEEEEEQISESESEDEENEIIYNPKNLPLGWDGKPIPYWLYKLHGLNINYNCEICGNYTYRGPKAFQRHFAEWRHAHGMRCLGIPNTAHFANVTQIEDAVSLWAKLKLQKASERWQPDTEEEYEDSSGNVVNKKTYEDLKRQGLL
UniProt Q9H299: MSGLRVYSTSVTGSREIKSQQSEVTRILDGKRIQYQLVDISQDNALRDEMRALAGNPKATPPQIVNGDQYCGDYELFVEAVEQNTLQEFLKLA
UniProt Q9NVA2: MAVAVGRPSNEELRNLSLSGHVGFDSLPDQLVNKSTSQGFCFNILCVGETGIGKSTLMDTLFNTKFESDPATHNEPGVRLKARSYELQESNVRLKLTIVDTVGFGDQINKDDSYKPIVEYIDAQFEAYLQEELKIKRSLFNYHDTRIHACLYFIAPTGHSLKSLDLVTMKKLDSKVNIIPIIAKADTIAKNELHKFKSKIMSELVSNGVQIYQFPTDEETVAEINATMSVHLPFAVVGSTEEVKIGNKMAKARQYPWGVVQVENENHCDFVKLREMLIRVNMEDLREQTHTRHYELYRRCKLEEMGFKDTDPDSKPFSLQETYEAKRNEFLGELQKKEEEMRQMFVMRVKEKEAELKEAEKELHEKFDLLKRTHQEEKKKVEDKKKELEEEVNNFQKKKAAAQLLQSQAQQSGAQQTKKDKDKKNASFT
UniProt Q9Y3B4: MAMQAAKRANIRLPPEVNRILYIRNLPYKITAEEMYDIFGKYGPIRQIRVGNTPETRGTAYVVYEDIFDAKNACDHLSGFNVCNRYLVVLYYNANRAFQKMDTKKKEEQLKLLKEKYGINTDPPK
UniProt Q15393: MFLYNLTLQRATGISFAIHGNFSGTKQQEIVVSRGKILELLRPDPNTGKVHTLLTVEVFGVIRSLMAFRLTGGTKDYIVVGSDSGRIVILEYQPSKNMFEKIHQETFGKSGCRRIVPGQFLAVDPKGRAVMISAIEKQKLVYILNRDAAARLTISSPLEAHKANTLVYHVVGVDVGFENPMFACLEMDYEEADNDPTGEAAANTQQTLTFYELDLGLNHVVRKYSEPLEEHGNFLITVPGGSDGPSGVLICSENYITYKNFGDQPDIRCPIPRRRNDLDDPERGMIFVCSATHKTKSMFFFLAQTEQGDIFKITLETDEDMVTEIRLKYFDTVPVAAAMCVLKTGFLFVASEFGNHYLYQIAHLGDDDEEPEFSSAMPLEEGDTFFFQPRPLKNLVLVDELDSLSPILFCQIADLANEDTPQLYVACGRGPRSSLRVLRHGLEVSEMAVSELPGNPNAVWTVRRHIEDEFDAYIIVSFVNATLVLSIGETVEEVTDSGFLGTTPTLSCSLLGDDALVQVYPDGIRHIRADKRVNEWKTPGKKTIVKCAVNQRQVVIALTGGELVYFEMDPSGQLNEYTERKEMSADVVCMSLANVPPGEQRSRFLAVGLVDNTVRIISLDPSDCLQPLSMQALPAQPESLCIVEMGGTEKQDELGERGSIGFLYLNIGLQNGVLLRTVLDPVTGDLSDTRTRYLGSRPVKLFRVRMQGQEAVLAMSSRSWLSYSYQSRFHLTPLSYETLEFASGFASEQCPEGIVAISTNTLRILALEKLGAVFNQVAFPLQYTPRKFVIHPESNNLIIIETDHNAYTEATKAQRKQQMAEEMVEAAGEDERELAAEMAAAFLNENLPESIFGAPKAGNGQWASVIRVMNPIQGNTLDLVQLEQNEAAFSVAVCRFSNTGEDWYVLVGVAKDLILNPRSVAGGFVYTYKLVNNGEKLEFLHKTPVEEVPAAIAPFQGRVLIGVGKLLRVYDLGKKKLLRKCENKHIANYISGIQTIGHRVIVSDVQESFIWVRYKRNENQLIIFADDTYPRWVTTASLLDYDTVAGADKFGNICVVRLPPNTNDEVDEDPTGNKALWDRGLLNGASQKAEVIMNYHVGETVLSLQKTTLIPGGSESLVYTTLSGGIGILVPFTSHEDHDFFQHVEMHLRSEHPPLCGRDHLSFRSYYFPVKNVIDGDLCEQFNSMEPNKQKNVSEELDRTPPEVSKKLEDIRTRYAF
UniProt Q8N6T7, whole entry, looked up: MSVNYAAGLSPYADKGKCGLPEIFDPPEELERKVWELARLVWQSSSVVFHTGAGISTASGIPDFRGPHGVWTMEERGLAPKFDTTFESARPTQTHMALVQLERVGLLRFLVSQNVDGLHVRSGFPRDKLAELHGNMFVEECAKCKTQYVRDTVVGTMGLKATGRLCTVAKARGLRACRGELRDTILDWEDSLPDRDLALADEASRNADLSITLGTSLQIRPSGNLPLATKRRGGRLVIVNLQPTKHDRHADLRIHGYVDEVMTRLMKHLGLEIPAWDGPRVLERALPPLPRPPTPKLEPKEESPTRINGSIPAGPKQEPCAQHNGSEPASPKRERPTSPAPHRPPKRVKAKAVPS
UniProt O75533, whole entry, looked up: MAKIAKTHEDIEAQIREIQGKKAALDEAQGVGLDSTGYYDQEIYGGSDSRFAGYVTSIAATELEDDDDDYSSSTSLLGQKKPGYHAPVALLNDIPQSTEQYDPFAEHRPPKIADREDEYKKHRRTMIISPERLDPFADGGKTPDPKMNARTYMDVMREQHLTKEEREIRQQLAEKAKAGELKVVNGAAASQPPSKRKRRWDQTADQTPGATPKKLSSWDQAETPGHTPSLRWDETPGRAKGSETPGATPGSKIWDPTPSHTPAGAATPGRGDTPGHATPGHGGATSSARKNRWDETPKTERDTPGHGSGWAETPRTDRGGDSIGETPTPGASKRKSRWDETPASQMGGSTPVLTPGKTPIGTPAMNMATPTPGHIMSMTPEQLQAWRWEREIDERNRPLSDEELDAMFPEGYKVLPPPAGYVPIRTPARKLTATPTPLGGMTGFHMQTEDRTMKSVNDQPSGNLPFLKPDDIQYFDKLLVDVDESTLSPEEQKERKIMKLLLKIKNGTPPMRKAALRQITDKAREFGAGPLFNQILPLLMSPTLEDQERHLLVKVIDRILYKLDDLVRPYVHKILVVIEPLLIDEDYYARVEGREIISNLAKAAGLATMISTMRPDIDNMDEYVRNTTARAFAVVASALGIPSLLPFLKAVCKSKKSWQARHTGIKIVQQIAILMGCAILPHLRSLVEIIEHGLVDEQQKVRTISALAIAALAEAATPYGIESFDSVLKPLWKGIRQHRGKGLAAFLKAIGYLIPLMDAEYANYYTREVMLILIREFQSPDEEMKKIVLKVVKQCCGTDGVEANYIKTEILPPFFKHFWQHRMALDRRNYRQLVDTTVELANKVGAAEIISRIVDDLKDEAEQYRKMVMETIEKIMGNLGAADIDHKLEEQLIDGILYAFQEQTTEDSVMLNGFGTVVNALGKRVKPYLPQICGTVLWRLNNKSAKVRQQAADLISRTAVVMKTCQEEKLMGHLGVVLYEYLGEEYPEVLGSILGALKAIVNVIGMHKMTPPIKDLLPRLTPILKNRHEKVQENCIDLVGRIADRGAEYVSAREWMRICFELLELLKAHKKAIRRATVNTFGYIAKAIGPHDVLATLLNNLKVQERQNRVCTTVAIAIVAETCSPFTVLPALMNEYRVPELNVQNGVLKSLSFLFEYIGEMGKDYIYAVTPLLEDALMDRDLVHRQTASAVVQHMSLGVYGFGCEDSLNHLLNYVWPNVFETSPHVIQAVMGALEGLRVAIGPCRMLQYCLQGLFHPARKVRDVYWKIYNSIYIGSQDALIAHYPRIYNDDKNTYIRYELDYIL
UniProt P31947: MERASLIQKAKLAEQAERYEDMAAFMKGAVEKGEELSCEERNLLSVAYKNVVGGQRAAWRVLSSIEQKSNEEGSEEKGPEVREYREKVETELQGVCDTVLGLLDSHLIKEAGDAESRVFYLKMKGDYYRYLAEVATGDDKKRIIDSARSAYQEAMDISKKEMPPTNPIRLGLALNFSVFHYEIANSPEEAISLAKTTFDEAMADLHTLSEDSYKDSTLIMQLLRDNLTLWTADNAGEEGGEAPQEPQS
UniProt O60613, whole entry, looked up: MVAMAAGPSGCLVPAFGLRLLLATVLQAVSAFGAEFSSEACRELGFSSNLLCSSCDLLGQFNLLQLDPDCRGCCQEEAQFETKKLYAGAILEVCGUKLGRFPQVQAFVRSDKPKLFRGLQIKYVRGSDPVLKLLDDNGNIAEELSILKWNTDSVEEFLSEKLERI
UniProt Q9UJC5: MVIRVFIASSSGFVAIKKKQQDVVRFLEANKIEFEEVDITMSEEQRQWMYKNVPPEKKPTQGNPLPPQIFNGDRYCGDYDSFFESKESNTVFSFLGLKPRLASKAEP
UniProt Q9UHD8: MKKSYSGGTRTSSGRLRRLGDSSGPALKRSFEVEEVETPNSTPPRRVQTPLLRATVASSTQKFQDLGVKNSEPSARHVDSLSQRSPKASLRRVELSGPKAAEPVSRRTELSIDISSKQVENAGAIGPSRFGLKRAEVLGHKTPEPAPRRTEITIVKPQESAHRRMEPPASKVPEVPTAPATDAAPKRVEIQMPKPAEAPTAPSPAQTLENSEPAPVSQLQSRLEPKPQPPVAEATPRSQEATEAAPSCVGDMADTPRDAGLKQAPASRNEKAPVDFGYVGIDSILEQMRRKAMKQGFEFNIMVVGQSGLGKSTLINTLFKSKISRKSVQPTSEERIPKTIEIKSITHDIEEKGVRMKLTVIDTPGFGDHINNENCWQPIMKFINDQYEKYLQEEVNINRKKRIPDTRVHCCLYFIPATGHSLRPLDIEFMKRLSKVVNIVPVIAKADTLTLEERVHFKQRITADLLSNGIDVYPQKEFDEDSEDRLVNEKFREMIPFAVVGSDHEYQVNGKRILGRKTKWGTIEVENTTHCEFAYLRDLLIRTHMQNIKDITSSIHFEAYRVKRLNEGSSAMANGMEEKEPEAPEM
UniProt Q9Y3L3: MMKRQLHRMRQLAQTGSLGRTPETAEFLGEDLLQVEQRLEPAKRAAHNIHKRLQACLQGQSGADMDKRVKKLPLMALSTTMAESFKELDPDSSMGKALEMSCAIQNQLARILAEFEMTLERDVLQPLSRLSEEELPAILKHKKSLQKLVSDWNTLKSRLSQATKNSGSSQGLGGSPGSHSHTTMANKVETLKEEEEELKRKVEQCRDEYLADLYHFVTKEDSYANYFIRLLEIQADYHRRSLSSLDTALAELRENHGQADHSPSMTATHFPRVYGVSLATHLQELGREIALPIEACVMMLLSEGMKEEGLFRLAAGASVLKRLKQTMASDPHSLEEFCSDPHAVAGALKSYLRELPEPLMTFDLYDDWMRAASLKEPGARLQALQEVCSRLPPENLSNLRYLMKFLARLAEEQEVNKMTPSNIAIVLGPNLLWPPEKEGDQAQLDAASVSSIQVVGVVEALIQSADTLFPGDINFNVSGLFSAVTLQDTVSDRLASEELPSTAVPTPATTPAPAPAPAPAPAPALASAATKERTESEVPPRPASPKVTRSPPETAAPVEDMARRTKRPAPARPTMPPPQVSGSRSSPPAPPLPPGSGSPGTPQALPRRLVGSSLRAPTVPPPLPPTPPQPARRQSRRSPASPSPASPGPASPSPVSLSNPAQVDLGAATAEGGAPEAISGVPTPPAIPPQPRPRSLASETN

Each target was assayed with c1cc(OCCN2CCCCC2)cc(-c2n[nH]c3ccc(-c4nnc[nH]4)cc23)c1 (assay: log2 fold change, soluble protein after heating vs DMSO (PISA); higher = thermal stabilisation; K562 cells, 10 uM, 30 min; active = over 0.2 and 3.5 SD of the protein, either way, in both replicates (recomputed)).
Procedure, shortened: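 Soluble protein was defined as the supernatant after 21,000xg for 90 min. It came from K562 cells at 2×10^6 cells/mL given 10 μM compound for 30 min, heated in aliquots for 3 min across 48°C-58°C, pooled, and extracted in PBS with 0.5% NP-40 at 4°C, and was quantified by TMTpro 16plex LC-MS/MS with equalised channel sums. Thermal stability against control samples, from duplicates, is reported as log2 fold change.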

log2 fold change, inactive:
SHC1 isoform 6 (UniProt P29353) -0.08
SEC61B (UniProt P60468) -0.088
SF3A3 (UniProt Q12874) -0.087
SERPINB1 (UniProt P30740) -0.008
SH3BGRL3 (UniProt Q9H299) -0.027
SETDB1 (UniProt Q15047) 0.02
SEPTIN11 isoform 2 (UniProt Q9NVA2) -0.046
SERPINB6, A0A087X1N8 -0.012
SF3B6 (UniProt Q9Y3B4) -0.079
SF3B3 (UniProt Q15393) -0.074
SIRT6 (UniProt Q8N6T7) 0.004
SF3B1 (UniProt O75533) -0.091
SFN (UniProt P31947) 0.02
SF1 isoform 6 (UniProt Q15637) -0.046
SELENOF (UniProt O60613) -0.035
SERPINC1 (UniProt P01008) 0.396
SEL1L3 (UniProt Q68CR1) -0.1
SF1 isoform 5 (UniProt Q15637) -0.039
SH3BGRL2 (UniProt Q9UJC5) -0.092
SEMA4C (UniProt Q9C0C4) -0.03
SEPTIN9 (UniProt Q9UHD8) -0.025
SH3BP1 (UniProt Q9Y3L3) -0.002

2 records picked at random from the list so far:
log2 fold change, inactive:
SEPTIN11 isoform 2 (UniProt Q9NVA2) -0.046
SETDB1 (UniProt Q15047) 0.02
